# Measurements taken from PubChem BioAssay AID1671190 (National Center for Advancing Translational Sciences (NCATS), 2021).
# Sequences of proteins named here, by UniProt entry; tags and fusion partners are left off. A change or cut given only in a name is not applied to a line headed by its entry.
# UniProt P18054: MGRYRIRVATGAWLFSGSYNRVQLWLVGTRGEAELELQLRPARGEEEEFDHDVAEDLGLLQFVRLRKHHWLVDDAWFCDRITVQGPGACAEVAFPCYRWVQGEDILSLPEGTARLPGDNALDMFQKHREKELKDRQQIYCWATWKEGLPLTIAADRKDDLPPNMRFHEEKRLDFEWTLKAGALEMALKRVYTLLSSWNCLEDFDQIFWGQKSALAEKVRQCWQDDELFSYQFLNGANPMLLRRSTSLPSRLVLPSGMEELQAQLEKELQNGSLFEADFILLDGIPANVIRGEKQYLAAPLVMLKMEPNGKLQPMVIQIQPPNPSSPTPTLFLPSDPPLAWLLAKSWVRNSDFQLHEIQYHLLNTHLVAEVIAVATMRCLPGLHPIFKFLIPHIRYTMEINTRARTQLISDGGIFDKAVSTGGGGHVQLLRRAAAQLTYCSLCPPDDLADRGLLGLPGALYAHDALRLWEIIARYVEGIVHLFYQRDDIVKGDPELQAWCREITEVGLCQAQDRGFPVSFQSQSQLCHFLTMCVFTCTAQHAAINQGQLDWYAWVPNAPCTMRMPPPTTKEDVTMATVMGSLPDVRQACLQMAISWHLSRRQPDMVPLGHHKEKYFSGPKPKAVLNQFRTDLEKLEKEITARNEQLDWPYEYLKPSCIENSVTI
# The whole screen tested about 580,000 compounds, of which about 6,100 (1.1%) were called active. Inconclusive results, whose numbers are uncertain, are shown with a selection of clear calls. The call rests on the fitted dose curve; in most records, active means well fitted inhibition curve with a large enough effect; inconclusive means small, poorly fitted or top-dose-only effect, or another doubt; inactive means no such curve, though single readings can be large or run the other way. Where the call is inconclusive, the potency comes from a doubtful curve fit.
# Target: Polyunsaturated fatty acid lipoxygenase ALOX12 (Homo sapiens) (UniProt P18054)
# Test: Primary qHTS assay for inhibitors of human arachidonate 12S-lipoxygenase (ALOX12): Round 2
# Details: purified 12hLO, xylenol orange hydroperoxide absorbance; activity change, negative = inhibition: at 108 µM (top of the series) unless noted
# Summary of the method: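 Hydroperoxide product was detected by ferrous iron/xylenol orange as the 573 to 405 nm absorbance ratio. Arachidonic acid at 40 uM (final) was turned over for 30 min at room temperature by 150 nM human 12hLO, pH 7.0 Hepes buffer, after 15 min compound preincubation.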
# On the % scale 0 is the no-effect control and ±100 the full control effect; potency means the concentration at half of the fitted maximal effect.
Compound,Potency,"activity change, negative = inhibition"
CCC(C)n1c(SCc2nc3ccccc3o2)nc2ccccc2c1=O (stereo not given),"inconclusive: 100 µM [inhibitor, partial curve, poor fit]",
CSc1nc(NCCOCCO)c2sc3nc(-c4ccco4)c4c(c3c2n1)CCC4,"inconclusive: 25.1 µM [inhibitor, single point]",
CNC(=O)C1CC(=O)N(c2ccc(OCC(=O)Nc3ccccc3)cc2)C1 (stereo not given),,inactive: 0%
CC(C)(C(=O)c1ccccc1)/[N+]([O-])=C/c1ccc(F)cc1,"inconclusive: 44.7 µM [inhibitor, partial curve, poor fit]",
CN(CC1CCN(CCc2ccc(F)cc2)CC1)C1CCN(Cc2cccnc2)CC1,,inactive: 6.48%
Cc1cccc(NC(=O)Cn2c(-c3ccc(Cl)cc3)nc(C)c(CCO)c2=O)c1C,"inconclusive: 79.4 µM [inhibitor, partial curve, poor fit]",
Cc1ccc(-n2nc(C)c([C@@H]3C=C[C@@H](N)C3)c2C)cc1Cl,"inconclusive: 25.1 µM [inhibitor, partial curve, poor fit]",
COc1ccc(-c2c(C)oc3cc(OCC(=O)Nc4ccc5c(c4)OCCO5)ccc3c2=O)cc1,,inactive: 6.47%
CCOCCn1nc(C)cc1C(=O)N1CCC2(CC(=O)NC2=O)C1 (stereo not given),,inactive: 44%
COc1ccc(S(N)(=O)=O)cc1C(=O)OCC(=O)Nc1ncc(Cl)c(C)c1Cl,"inconclusive: 50.1 µM [inhibitor, partial curve, poor fit]",
CC(C)(O)C#Cc1cccc(-c2nc(C(=O)NCCCN3CCOCC3)cc3c2[C@H](CCO)N(S(=O)C(C)(C)C)C3)c1 (stereo not given in full),"inconclusive: 0.316 µM [inhibitor, full curve, poor fit]",
COc1ccc(N=C2S/C(=C\c3ccc(Cl)c([N+](=O)[O-])c3)C(=O)N2CCN(C)C)cc1,,inactive: 6.02%
C[C@]12CCC(=O)C=C1CC[C@@H]1[C@H]2[C@@H](O)C[C@@]2(C)[C@H]1CC[C@]2(O)C(=O)CO,"inconclusive: 48.5 µM [inhibitor, single point]",
O=C(CSc1nnc(-c2cccc(S(=O)(=O)N3CCOCC3)c2)n1C1CCCCCC1)NCc1ccccc1,,inactive: -15.7%
Cc1ccc(S(=O)(=O)c2nc(-c3ccc(F)cc3)oc2SCC(=O)NC2CCCCC2)cc1,"inconclusive: 112 µM [inhibitor, partial curve, poor fit]",
CCOc1ccc(CCNC(=O)C2CCCN(S(=O)(=O)N(C)c3ccc(F)cc3)C2)cc1 (stereo not given),,inactive: -13.6%
Cc1cc(C)c2cc(CN(CC3CCCO3)C(=S)NCc3ccco3)c(=O)[nH]c2c1 (stereo not given),"inconclusive: 35.5 µM [inhibitor, partial curve, poor fit]",
N#Cc1c(-c2ccc(Cl)cc2)cc(-c2cccs2)nc1SCC(=O)O,"inconclusive: 44.7 µM [inhibitor, partial curve, poor fit]",
CN1C(=S)N(c2ccccc2)C(=O)/C1=C/c1ccco1,"inconclusive: 56.2 µM [inhibitor, partial curve, poor fit]",
COc1cccc(-c2nc3ccccc3s2)c1,,inactive: 0%
CCOc1ccc(NC(=O)CCc2nc(-c3ccc(C)n(C(C)C)c3=O)no2)cc1,,inactive: -1.71%
O=C(NCCc1ccc(Cl)cc1)C12CC3CC(CC(C3)C1)C2,"inconclusive: 44.7 µM [inhibitor, partial curve, poor fit]",

# Some values from the entries so far.
# Cc1cccc(NC(=O)Cn2c(-c3ccc(Cl)cc3)nc(C)c(CCO)c2=O)c1C – Potency: inconclusive: 79.4 µM [inhibitor, partial curve, poor fit]
# COc1ccc(S(N)(=O)=O)cc1C(=O)OCC(=O)Nc1ncc(Cl)c(C)c1Cl – Potency: inconclusive: 50.1 µM [inhibitor, partial curve, poor fit]

# (listing goes on)

Compound,Potency,"activity change, negative = inhibition"
CC(=O)c1ccc([C@H]2C[C@@]34CN(C(=O)OC(C)(C)C)S(=O)(=O)[C@H]3C[C@H]2O4)cc1,"inconclusive: 35.5 µM [inhibitor, partial curve, poor fit]",
O=c1cc(-c2ccccc2)nc(Sc2ccc([N+](=O)[O-])cc2[N+](=O)[O-])[nH]1,"inconclusive: 3.98 µM [inhibitor, full curve, poor fit]",
COc1ccc(CN2CCN(C3CCC3)CC2CCO)cc1C (stereo not given),"inconclusive: 79.4 µM [inhibitor, single point]",
O=C(Nc1ccc(F)cc1)C(c1cccc(F)c1)N1CCN(c2cccc(C(F)(F)F)n2)CC1 (stereo not given),,inactive: -15.8%
CC(=O)Oc1cc(C(=O)OCC(=O)N2CCc3ccccc3C2)cc(OC(C)=O)c1OC(C)=O,"inconclusive: 5.62 µM [inhibitor, full curve]",
Cc1ccc(C)c(NC(=O)Cn2cc(C(=O)C3CC3)c3ccccc32)c1,"inconclusive: 70.8 µM [inhibitor, partial curve, poor fit]",
N=c1n(CCCOc2ccc(Br)cc2)c2ccccc2n1CC(N)=O,"inconclusive: 35.5 µM [inhibitor, single point]",
Cc1ccc(CNC[C@H]2Cn3cc(-c4ccccc4)nc3CO2)cc1,"inconclusive: 35.5 µM [inhibitor, partial curve]",
N#Cc1ccc(C(=O)N2CCC3(CC2)NC(=O)N(Cc2ccc(Cl)cc2)C3=O)cc1,"inconclusive: 12.6 µM [inhibitor, full curve]",
CC1=C/C(=N/NC(=S)NC2CCCCC2)CC(C)(C)C1,"inconclusive: 44.7 µM [inhibitor, partial curve, poor fit]",
O=C(NCc1ccccc1)C(=O)Nc1c2c(nn1-c1ccc(F)cc1)CSC2,,inactive: -2.98%
CC(C)N1C(=O)C2(CCCC2)C1C(=O)N1CCc2ccccc21 (stereo not given),,inactive: 35.2%
Cc1ccc(CC2CC(=O)N(c3ccc4ccccc4n3)C2=O)cc1 (stereo not given),,inactive: -5.42%
COc1cccc(C(=O)N2C(C(C)C)COc3cc(Br)ccc3S2(=O)=O)c1 (stereo not given),,inactive: 7.23%
O=C1CN(C(=O)CSc2ccccn2)c2ccccc2N1,"inconclusive: 141 µM [inhibitor, partial curve, poor fit]",
O=S(=O)(NCC12CC3CC(CC(C3)C1)C2)c1cccs1,"inconclusive: 100 µM [inhibitor, single point]",
CSc1ccc(CN2CCN(C(=O)CC(C)C)CC2)cc1,"inconclusive: 0.501 µM [inhibitor, full curve, poor fit]",
Cc1ccccc1-c1nc2cnccn2c1NCCC(=O)N(C)Cc1ccccc1,"inconclusive: 44.7 µM [inhibitor, partial curve, poor fit]",
NC[C@H]1O[C@@H](CO)[C@@H](O)[C@H]1N1CCN(c2ccccn2)CC1,"inconclusive: 12.6 µM [inhibitor, partial curve, poor fit]",
CC(C)C(=O)Nc1ccc(Cl)c(Cl)c1,,inactive: 11.4%
Cn1c(=O)c2c(ncn2CC(=O)Nc2ccccc2Cc2ccccc2)n(C)c1=O,"inconclusive: 8.91 µM [inhibitor, partial curve, poor fit]",
C/C=C/c1ccc(OCCCCN(C)Cc2ccccc2)c(OC)c1,"inconclusive: 0.355 µM [inhibitor, full curve, poor fit]",

# Part of the list above, as tab-separated lines.
Compound	Potency	activity change, negative = inhibition
O=c1cc(-c2ccccc2)nc(Sc2ccc([N+](=O)[O-])cc2[N+](=O)[O-])[nH]1	inconclusive: 3.98 µM [inhibitor, full curve, poor fit]	
COc1ccc(CN2CCN(C3CCC3)CC2CCO)cc1C (stereo not given)	inconclusive: 79.4 µM [inhibitor, single point]	
O=C(Nc1ccc(F)cc1)C(c1cccc(F)c1)N1CCN(c2cccc(C(F)(F)F)n2)CC1 (stereo not given)		inactive: -15.8%

# Remaining list, next part:

Compound,Potency,"activity change, negative = inhibition"
CCc1ccc2oc(-c3ccc(C)c(NC(=O)/C=C/c4ccco4)c3)nc2c1,"inconclusive: 141 µM [inhibitor, partial curve, poor fit]",
CSc1ccc(/C=C/c2nc(=O)c3ccccc3o2)cc1,"inconclusive: 39.8 µM [inhibitor, single point]",
COc1cccc(C(=O)Nc2ccc3c(c2)OC[C@H](C)N(C(=O)C2CCCC2)C[C@@H](C)[C@@H](OC)CN(C)C3=O)c1,,inactive: -4.76%
COc1ccc(-c2nc3ccccc3o2)cc1NC(=O)c1cccc(Cl)c1,,inactive: -14.2%
O=C(COc1ccc2c(=O)c(-c3ccccc3Cl)coc2c1)Nc1ccccc1Cl,,inactive: 0.452%
CC(=O)N1CCN(CCS(=O)(=O)c2ccc(Br)cc2)CC1,"inconclusive: 79.4 µM [inhibitor, partial curve, poor fit]",
O=C(O)c1cc(S(=O)(=O)N2CCCCCC2)c(Cl)cc1Cl,"inconclusive: 15.8 µM [inhibitor, full curve, poor fit]",
N#Cc1c(C(F)(F)F)cc(=O)n2c1[nH]c1ccccc12,,inactive: 2.12%
Cc1ccccc1CNC(=O)C(=O)NCCC1CCCCN1S(=O)(=O)c1ccccc1 (stereo not given),,inactive: -12.4%
Cc1cccc(NC(=O)CN(C)Cc2coc(-c3ccccc3)n2)c1C,"inconclusive: 28.2 µM [inhibitor, single point]",
CCOC(=O)c1[nH]c(C)c(C(=O)NCc2cccnc2)c1C,,inactive: 445%
CCOC(=O)C1=C(C)NC2=C(C(=O)c3ccccc32)C1c1ccc(O)cc1 (stereo not given),"inconclusive: 44.7 µM [inhibitor, partial curve, poor fit]",
COC(CNC(=O)c1cnn2c(C)c(Cc3ccccc3)c(C)nc12)OC,,inactive: 44.9%
Cc1ccccc1-c1nc(CN2CCCC(C(=O)NCc3ccc(Cl)cc3)C2)c(C)o1 (stereo not given),"inconclusive: 50.1 µM [inhibitor, partial curve, poor fit]",
CN1CCC(N(C)C(=O)c2ccc(Cl)c(S(=O)(=O)N3CCOCC3)c2)CC1,,inactive: -13.9%
CCc1ccc(S(=O)(=O)c2cn(CC(=O)Nc3ccc(F)c(Cl)c3)c3ccccc3c2=O)cc1,"inconclusive: 3.16 µM [inhibitor, full curve, poor fit]",
O=C(Cn1cccc1-c1nc(-c2ccccc2)no1)NCc1ccccc1,"inconclusive: 11.2 µM [inhibitor, full curve, poor fit]",
O=C(CSc1nc2cc(Cl)ccc2o1)c1c[nH]c2ccccc12,"inconclusive: 56.2 µM [inhibitor, partial curve, poor fit]",
COc1ccc([N+](=O)[O-])cc1NC(c1nnc(-c2ccccc2)o1)c1ccccc1F (stereo not given),,inactive: -16.4%
COC(=O)C1=C(C)NC(=S)NC1c1ccc(-c2ccccc2C(=O)OC)o1 (stereo not given),"inconclusive: 44.7 µM [inhibitor, partial curve, poor fit]",
CN(CC(=O)Nc1ccccc1Cl)C(=O)c1ccc(N2C(=O)CCC2=O)cc1,"inconclusive: 112 µM [inhibitor, single point]",
